Results reported in patent US8030443B2, “Squamous cell carcinoma antigen-derived peptide binding to HLA-A24 molecule” (Kurume University, priority 2005, dated 2011).
Not every detail of the peptide structures is certain; ends, links or a residue may be inferred. Residues, ends and D or L forms follow the SMILES beside them.

Test system: peptide-specific IgG in sera of cancer patients and healthy donors
Assay: Measurement of anti-peptide IgG in plasma by LUMINEX multiplexed flow cytometric assay
Type: binding, human
Procedure: The levels of anti-peptide immunoglobulin G (IgG) were measured by the LUMINEX™ system (multiplexed flow cytometric assay) as previously reported (Komatsu N, Shichijo S, Nakagawa M, Itoh K. New multiplexed flow cytometric assay to measure anti-peptide antibody: a novel tool for monitoring immune responses to peptides used for immunization. Scand J Clin Lab Invest 2004; 64:1-11). In brief, plasma was incubated with 25 μl of peptide-coupled color-coded beads for 2 hr at room temperature on a plate shaker. After incubation, the mixture was washed with a vacuum manifold apparatus and incubated with 100 μl of biotinylated goat anti-human IgG (γ chain-specific)(BA-3080, Vector Laboratories, Burlingame, Calif., USA) for 1 h at room temperature. The plate was then washed, followed by the addition of 100 μl of streptavidin-PE (S-866, Molecular Probes, Eugene, Oreg., USA) into wells, and was incubated for 30 min at room temperature on a plate shaker. The bound beads were washed three times followed by the addition of 100 μl of Tween-PBS into each well. Fifty μl of sample was detected using the LUMINEX™ system (multiplexed flow cytometric assay). To confirm the specificity of IgG to a SCCA peptide, sample plasma was cultured in plates coated with a corresponding SCCA peptide, or with an irrelevant SCCA peptide. After the operation was repeated three times, the levels of the corresponding SCCA peptide-specific IgG in the resulting supernatant were determined by the LUMINEX™ system (multiplexed flow cytometric assay).
These 9 SCCA-derived peptides were screened based on their ability to be recognized by IgG in cancer patients. Peptide-specific IgG was measured by a multiplexed flow cytometric assay (LUMINEX™ (multiplexed flow cytometric assay)). The plasma samples were derived from 35 uterine cervical SCC patients, 10 breast adenocarcinoma patients, 10 pancreatic adenocarcinoma patients, 10 gastric adenocarcinoma, and 6 colon adenocarcinoma patients. The level of fluorescence intensity was judged to be significant when exceeded 100 at an 1/100 dilution.

For CC(C)C[C@H](NC(=O)[C@H](Cc1ccc(O)cc1)NC(=O)[C@H](CCC(=O)O)NC(=O)[C@H](CCC(N)=O)NC(=O)[C@H](CC(C)C)NC(=O)[C@H](Cc1ccccc1)NC(=O)[C@H](CC(C)C)NC(=O)[C@H](Cc1ccc(O)cc1)NC(=O)[C@@H](N)[C@@H](C)O)C(=O)O [SCCA 112, TYLFLQEYL] (H-TYLFLQEYL-OH), the “Total: healthy donors with significant peptide-reactive IgG / donors tested” value (10 healthy donors, significant when fluorescence intensity exceeded 100 at 1/100 dilution) was 5/10, the “Total: cancer patients with significant peptide-reactive IgG / patients tested” value (71 cancer patients, significant when fluorescence intensity exceeded 100 at 1/100 dilution) was 23/71 and the “Specificity of IgG reactive to the peptide” value (absorption assay: corresponding vs irrelevant SCCA peptide-coated wells (FIG. 3)) was “confirmed by absorption assay”. For the same compound, the Fluorescence intesity (serum of Breast Ca. patient #36, 1:100 dilution) was 26, the Fluorescence intesity (serum of Breast Ca. patient #37, 1:100 dilution) was 0 and the Fluorescence intesity (serum of Breast Ca. patient #38, 1:100 dilution) was 0. The Fluorescence intesity (serum of Breast Ca. patient #39, 1:100 dilution) was 0, the Fluorescence intesity (serum of Breast Ca. patient #40, 1:100 dilution) was 567 and the Fluorescence intesity (serum of Breast Ca. patient #41, 1:100 dilution) was 113. The Fluorescence intesity (serum of Breast Ca. patient #42, 1:100 dilution) was 62, the Fluorescence intesity (serum of Breast Ca. patient #43, 1:100 dilution) was 5924 and the Fluorescence intesity (serum of Breast Ca. patient #44, 1:100 dilution) was 0. It also gave a Fluorescence intesity (serum of Breast Ca. patient #45, 1:100 dilution) of 0, a Fluorescence intesity (serum of Colon Ca. patient #66, 1:100 dilution) of 257 and a Fluorescence intesity (serum of Colon Ca. patient #67, 1:100 dilution) of 0. It also gave a Fluorescence intesity (serum of Colon Ca. patient #68, 1:100 dilution) of 0, a Fluorescence intesity (serum of Colon Ca. patient #69, 1:100 dilution) of 317 and a Fluorescence intesity (serum of Colon Ca. patient #70, 1:100 dilution) of 105. For the same compound, the Fluorescence intesity (serum of Colon Ca. patient #71, 1:100 dilution) was 0, the Fluorescence intesity (serum of Gastric Ca. patient #56, 1:100 dilution) was 11506 and the Fluorescence intesity (serum of Gastric Ca. patient #57, 1:100 dilution) was 0. It also gave a Fluorescence intesity (serum of Gastric Ca. patient #58, 1:100 dilution) of 0, a Fluorescence intesity (serum of Gastric Ca. patient #59, 1:100 dilution) of 2549 and a Fluorescence intesity (serum of Gastric Ca. patient #60, 1:100 dilution) of 1371. It also gave a Fluorescence intesity (serum of Gastric Ca. patient #61, 1:100 dilution) of 0, a Fluorescence intesity (serum of Gastric Ca. patient #62, 1:100 dilution) of 195 and a Fluorescence intesity (serum of Gastric Ca. patient #63, 1:100 dilution) of 0. The Fluorescence intesity (serum of Gastric Ca. patient #64, 1:100 dilution) was 0, the Fluorescence intesity (serum of Gastric Ca. patient #65, 1:100 dilution) was 1312 and the Fluorescence intesity (serum of Healthy Donor #1, 1:100 dilution) was 607. For the same compound, the Fluorescence intesity (serum of Healthy Donor #2, 1:100 dilution) was 52, the Fluorescence intesity (serum of Healthy Donor #3, 1:100 dilution) was 0 and the Fluorescence intesity (serum of Healthy Donor #4, 1:100 dilution) was 0. For the same compound, the Fluorescence intesity (serum of Healthy Donor #5, 1:100 dilution) was 387, the Fluorescence intesity (serum of Healthy Donor #6, 1:100 dilution) was 0 and the Fluorescence intesity (serum of Healthy Donor #7, 1:100 dilution) was 990. It also gave a Fluorescence intesity (serum of Healthy Donor #8, 1:100 dilution) of 496, a Fluorescence intesity (serum of Healthy Donor #9, 1:100 dilution) of 1396 and a Fluorescence intesity (serum of Healthy Donor #10, 1:100 dilution) of 0. For the same compound, the Fluorescence intesity (serum of Pancreas Ca. patient #46, 1:100 dilution) was 0, the Fluorescence intesity (serum of Pancreas Ca. patient #47, 1:100 dilution) was 0 and the Fluorescence intesity (serum of Pancreas Ca. patient #48, 1:100 dilution) was 137. It also gave a Fluorescence intesity (serum of Pancreas Ca. patient #49, 1:100 dilution) of 0, a Fluorescence intesity (serum of Pancreas Ca. patient #50, 1:100 dilution) of 280 and a Fluorescence intesity (serum of Pancreas Ca. patient #51, 1:100 dilution) of 0. It also gave a Fluorescence intesity (serum of Pancreas Ca. patient #52, 1:100 dilution) of 185, a Fluorescence intesity (serum of Pancreas Ca. patient #53, 1:100 dilution) of 1150 and a Fluorescence intesity (serum of Pancreas Ca. patient #54, 1:100 dilution) of 0. The Fluorescence intesity (serum of Pancreas Ca. patient #55, 1:100 dilution) was 0, the Fluorescence intesity (serum of Uterine cervical Ca. patient #1, 1:100 dilution) was 3301 and the Fluorescence intesity (serum of Uterine cervical Ca. patient #2, 1:100 dilution) was 66. For the same compound, the Fluorescence intesity (serum of Uterine cervical Ca. patient #3, 1:100 dilution) was 575, the Fluorescence intesity (serum of Uterine cervical Ca. patient #4, 1:100 dilution) was 3138 and the Fluorescence intesity (serum of Uterine cervical Ca. patient #5, 1:100 dilution) was 76. It also gave a Fluorescence intesity (serum of Uterine cervical Ca. patient #6, 1:100 dilution) of 428, a Fluorescence intesity (serum of Uterine cervical Ca. patient #7, 1:100 dilution) of 14 and a Fluorescence intesity (serum of Uterine cervical Ca. patient #8, 1:100 dilution) of 40. The Fluorescence intesity (serum of Uterine cervical Ca. patient #9, 1:100 dilution) was 94, the Fluorescence intesity (serum of Uterine cervical Ca. patient #10, 1:100 dilution) was 19 and the Fluorescence intesity (serum of Uterine cervical Ca. patient #11, 1:100 dilution) was 19. It also gave a Fluorescence intesity (serum of Uterine cervical Ca. patient #12, 1:100 dilution) of 42, a Fluorescence intesity (serum of Uterine cervical Ca. patient #13, 1:100 dilution) of 26 and a Fluorescence intesity (serum of Uterine cervical Ca. patient #14, 1:100 dilution) of 20. The Fluorescence intesity (serum of Uterine cervical Ca. patient #15, 1:100 dilution) was 82, the Fluorescence intesity (serum of Uterine cervical Ca. patient #16, 1:100 dilution) was 206 and the Fluorescence intesity (serum of Uterine cervical Ca. patient #17, 1:100 dilution) was 53. For the same compound, the Fluorescence intesity (serum of Uterine cervical Ca. patient #18, 1:100 dilution) was 34, the Fluorescence intesity (serum of Uterine cervical Ca. patient #19, 1:100 dilution) was 46 and the Fluorescence intesity (serum of Uterine cervical Ca. patient #20, 1:100 dilution) was 107. For the same compound, the Fluorescence intesity (serum of Uterine cervical Ca. patient #21, 1:100 dilution) was 22, the Fluorescence intesity (serum of Uterine cervical Ca. patient #22, 1:100 dilution) was 24 and the Fluorescence intesity (serum of Uterine cervical Ca. patient #23, 1:100 dilution) was 46. It also gave a Fluorescence intesity (serum of Uterine cervical Ca. patient #24, 1:100 dilution) of 1008, a Fluorescence intesity (serum of Uterine cervical Ca. patient #25, 1:100 dilution) of 19 and a Fluorescence intesity (serum of Uterine cervical Ca. patient #26, 1:100 dilution) of 72. The Fluorescence intesity (serum of Uterine cervical Ca. patient #27, 1:100 dilution) was 38, the Fluorescence intesity (serum of Uterine cervical Ca. patient #28, 1:100 dilution) was 96 and the Fluorescence intesity (serum of Uterine cervical Ca. patient #29, 1:100 dilution) was 19. The Fluorescence intesity (serum of Uterine cervical Ca. patient #30, 1:100 dilution) was 30, the Fluorescence intesity (serum of Uterine cervical Ca. patient #31, 1:100 dilution) was 123 and the Fluorescence intesity (serum of Uterine cervical Ca. patient #32, 1:100 dilution) was 19. For the same compound, the Fluorescence intesity (serum of Uterine cervical Ca. patient #33, 1:100 dilution) was 82, the Fluorescence intesity (serum of Uterine cervical Ca. patient #34, 1:100 dilution) was 19 and the Fluorescence intesity (serum of Uterine cervical Ca. patient #35, 1:100 dilution) was 21.
